Measured values published in the supplement of paper PMC11348887.
Counter-ions that a name gives are not always drawn. The list shows a part of the results. Most values lie at the level of the controls, where differences are scatter.

Assays:
Settings in all cases: 5 µM; treatment: days 7-14 after plating, readout day 21
[1] = tested on: hPSC-derived cortical neurons (WA09); assay: nucleus area z-score vs screen plate; higher = larger nuclei (more mature)
[2] = tested on: hPSC-derived cortical neurons (WA09); assay: total neurite length per nucleus (MAP2) z-score; higher = more neurite growth
[3] = tested on: hPSC-derived cortical neurons (WA09); assay: nucleus roundness z-score vs screen plate; higher = rounder nuclei (more mature)
[4] = tested on: hPSC-derived cortical neurons (WA09); assay: KCl-induced FOS+/EGR-1+ double-positive nuclei fraction z-score (KCl minus unstimulated); higher = stronger activity-induced IEG response

| Compound | nucleus area z-score [1] | total neurite length per nucleus (z-score) [2] | nucleus roundness z-score [3] | KCl-induced FOS+/EGR-1+ double-positive nuclei fraction z-score [4] |
| --- | --- | --- | --- | --- |
| Cc1cc(Nc2cc(N3CCN(C)CC3)nc(/C=C/c3ccccc3)n2)n[nH]1 | 0.384 | -0.039 | -0.948 | -0.896 |
| CC(C)Cn1cnc2c(N)nc3ccccc3c21 [Imiquimod] | 0.395 | -1.02 | -1.48 | -0.123 |
| COC(=O)C1=C(C#N)NC(C)=C(C(=O)OC(C)C)C1c1cccc([N+](=O)[O-])c1 (stereo not drawn) [Nilvadipine] | -1.36 | -0.656 | 0.834 | 1.43 |
| Nc1ncnc2c1C(=O)N(c1ccc([C@H]3CC[C@H](CC(=O)O)CC3)cc1)CCO2 | 0.313 | 0.756 | 0.452 | 1.82 |
| CN1CCC(=C2c3ccccc3CCc3cccnc32)CC1 [Azatadine dimaleate] | 0.216 | 0.778 | 1.19 | 2.58 |
| CC1(C)O[C@H]2CC(=O)OC[C@]23[C@H]2CC[C@@]4(C)[C@H](c5ccoc5)OC(=O)[C@H]5O[C@]54[C@]2(C)C(=O)C[C@@H]13 [Limonin] | 3.29 | -0.799 | -0.821 | 0.974 |
| O=c1c2ccccc2oc2ccccc12 [Xanthone] | 0.328 | -0.162 | -0.178 | 0.158 |
| Nc1ccn([C@@H]2O[C@H](CO)[C@@H](O)C2(F)F)c(=O)n1 [Gemcitabine HCl] | -2.88 | -1.13 | -1.19 | -1.79 |
| OC[C@H]1O[C@H](O[C@]2(CCl)O[C@H](CCl)[C@@H](O)[C@@H]2O)[C@H](O)[C@@H](O)[C@H]1Cl [Sucralose] | -0.16 | 0.188 | 0.0641 | 0.00185 |
| O=C1c2cccc3c2[C@H](CCC3)CN1[C@@H]1CN2CCC1CC2 [Palonosetron HCl] | 0.747 | -0.208 | -0.218 | -0.832 |
| O=C(Oc1cccc(F)c1OC(=O)c1cccc(O)c1)c1cccc(O)c1 | -4.14 | -2.44 | -2.66 | -1.06 |
| O=C(NCCS(=O)(=O)c1ccc(C(F)(F)F)cn1)c1ccc(Cl)cc1 | -0.2 | 0.228 | 0.361 | 1.22 |
| CC(C)c1cc(C(=O)N2Cc3ccc(CN4CCN(C)CC4)cc3C2)c(O)cc1O | -3.53 | -2.18 | -3.81 | -2.64 |
| CN(C)C(=O)Nc1cccc(-c2ccc(N(C)C)cc2)c1 [Atglistatin] | 0.152 | 0.663 | -0.0644 | 1.27 |
| O=c1[nH]c(=O)n(C2CC(O)C(CO)O2)cc1Br (stereo not drawn) [Bromodeoxyuridine (BrdU)] | -0.658 | 0.312 | 0.1 | -0.0517 |
| CNCC[C@@H](Oc1ccccc1C)c1ccccc1 [Atomoxetine HCl] | 0.0224 | 1.1 | 0.458 | 0.911 |
| CN(C)Cc1cccc(N/C(=C2\C(=O)Nc3cc(C(N)=O)ccc32)c2ccccc2)c1 | -0.0564 | -0.371 | -1.25 | -0.917 |
| CN(C)CCC=C1c2ccccc2CCc2ccccc21 [Amitriptyline HCl] | 0.847 | -1.28 | -2.24 | -1.48 |
| CCn1cc(C(=O)O)c(=O)c2c(N)c(F)c(NC3CCCCC3)cc21 | -0.999 | -2.38 | -1.57 | -0.543 |
| CCn1cc(C(=O)O)c(=O)c2cc(F)c(N3CCNC(C)C3)c(F)c21 (stereo not drawn) [Lomefloxacin HCl] | 0.128 | 0.307 | 0.205 | 0.576 |
| Cc1ccc(C(=O)Nc2cccc(C(F)(F)F)c2)cc1Nc1nc(-c2cccnc2)nc2c1cnn2C | -1.71 | -0.0459 | 0.834 | -0.251 |
| CC(C)(C)c1cc(C(C)(C)C)c(NC(=O)c2c[nH]c3ccccc3c2=O)cc1O [Ivacaftor (VX-770)] | 0.327 | 0.118 | 0.529 | 0.158 |
| COc1ccc(C(=O)C2CCN(CC(=O)N(Cc3nc4c(c(=O)[nH]3)COCC4)CC3CC3)CC2)cc1 | -3.08 | -2.74 | -0.327 | 0.0822 |
| CN1CCN(Cc2ccc(-c3cnc4[nH]cc(-c5ccc6[nH]ccc6c5)c4c3)cc2)CC1 | -14.4 | -5.7 | -4.44 | 1.61 |
| CCC[C@@H]1C[C@@H](C(=O)N[C@@H]([C@H]2O[C@H](SC)[C@H](O)[C@@H](O)[C@H]2O)[C@H](C)Cl)N(C)C1 [Clindamycin HCl] | 0.987 | 0.927 | 0.336 | 1.6 |
| CCOc1ccn(-c2ccc(F)cc2)c(=O)c1C(=O)Nc1ccc(Oc2ccnc(N)c2Cl)c(F)c1 | -0.00945 | 0.6 | -0.302 | -0.0968 |
| Cc1ccc(S(=O)(=O)NC(=O)NN2CC3CCCC3C2)cc1 (stereo not drawn) [Gliclazide] | 0.976 | 0.795 | 0.548 | 0.799 |

Quoted from the listing for reference:

| Compound | nucleus area z-score [1] | total neurite length per nucleus (z-score) [2] | nucleus roundness z-score [3] | KCl-induced FOS+/EGR-1+ double-positive nuclei fraction z-score [4] |
| --- | --- | --- | --- | --- |
| O=C(Oc1cccc(F)c1OC(=O)c1cccc(O)c1)c1cccc(O)c1 | -4.14 | -2.44 | -2.66 | -1.06 |
| O=C(NCCS(=O)(=O)c1ccc(C(F)(F)F)cn1)c1ccc(Cl)cc1 | -0.2 | 0.228 | 0.361 | 1.22 |
